Source: US20230331781A1, “PAR4 DERIVED PEPTIDES, ANALOGS AND USES THEREOF” (Yissum Research Development Company of the Hebrew …, priority 2019, published 2023)
Numbering of substitutions follows the chain as printed. No constants are given. Whether binding was seen depends on the method and setting. In cells and extracts the contact can be indirect. Some binding calls cover weakened binding; strength is not graded here.

Sequences of proteins named here, by UniProt entry; tags and fusion partners are left off. Residues count along the entry.
UniProt P55085, residues 37-397: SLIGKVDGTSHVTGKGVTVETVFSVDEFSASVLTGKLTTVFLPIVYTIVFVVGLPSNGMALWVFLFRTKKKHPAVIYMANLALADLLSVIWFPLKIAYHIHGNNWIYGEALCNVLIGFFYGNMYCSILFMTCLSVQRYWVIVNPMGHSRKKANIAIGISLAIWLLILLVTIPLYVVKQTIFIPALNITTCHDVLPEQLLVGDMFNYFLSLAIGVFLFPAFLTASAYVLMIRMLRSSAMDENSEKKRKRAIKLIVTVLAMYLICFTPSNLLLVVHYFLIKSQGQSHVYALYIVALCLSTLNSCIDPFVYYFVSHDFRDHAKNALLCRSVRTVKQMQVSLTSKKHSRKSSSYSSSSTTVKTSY
UniProt P31749: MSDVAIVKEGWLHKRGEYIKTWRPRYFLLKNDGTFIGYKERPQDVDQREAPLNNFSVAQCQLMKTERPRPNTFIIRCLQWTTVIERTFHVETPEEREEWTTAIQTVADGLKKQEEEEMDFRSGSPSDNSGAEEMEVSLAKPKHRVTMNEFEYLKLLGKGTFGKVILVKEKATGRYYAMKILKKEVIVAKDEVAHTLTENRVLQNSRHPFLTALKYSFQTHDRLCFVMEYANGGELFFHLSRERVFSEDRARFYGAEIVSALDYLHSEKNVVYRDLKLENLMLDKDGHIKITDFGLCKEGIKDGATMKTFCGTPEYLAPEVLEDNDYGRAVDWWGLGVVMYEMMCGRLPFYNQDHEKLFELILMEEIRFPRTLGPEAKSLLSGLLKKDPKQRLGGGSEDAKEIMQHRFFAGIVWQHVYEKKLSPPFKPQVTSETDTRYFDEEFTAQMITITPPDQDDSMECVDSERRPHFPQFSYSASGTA

Columns and labels:
[1] = target: T1, PAR4 (protease-activated receptor 4), wt flg-hPar4 (human) (UniProt Q96RI0); assay: co-IP, anti-flg IP and anti-Akt blot (FIG. 3D, 4F)
T1 sequence (looked up): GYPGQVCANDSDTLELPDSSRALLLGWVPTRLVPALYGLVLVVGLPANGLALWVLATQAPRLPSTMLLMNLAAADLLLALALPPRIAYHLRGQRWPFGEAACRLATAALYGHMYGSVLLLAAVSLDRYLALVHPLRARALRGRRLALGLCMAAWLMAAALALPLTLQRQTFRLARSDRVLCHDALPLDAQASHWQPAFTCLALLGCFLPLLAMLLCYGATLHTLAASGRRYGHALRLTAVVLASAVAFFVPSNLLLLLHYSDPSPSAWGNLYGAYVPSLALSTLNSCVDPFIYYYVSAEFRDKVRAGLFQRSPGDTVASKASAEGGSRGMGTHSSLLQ

flg-Par4MutE346A (human) [2] = target: T2, flg-Par4MutE346A (human) (UniProt Q96RI0); assay: co-IP: anti-flg IP from HEK293 cells transfected with flg-Par4MutE346A, anti-Akt blot (FIG. 4E)
T2 sequence (looked up): T1 sequence (looked up) with E299A

[3] = target: T1, PAR4 (protease-activated receptor 4), wt flg-hPar4 (human); assay: co-IP: anti-flg IP of flg-hPar4 from HU cell lysates after AYPGKF activation, anti-Akt Western blot (FIG. 1)
[4] = target: PAR2 (protease-activated receptor 2), flag-hPar2 (human) (UniProt P55085); assay: co-IP from HEK 293 cells transfected with flag-hPar2 after SLIGKV activation, anti-Akt blot (FIG. 11)
[5] = target: T1, PAR4 (protease-activated receptor 4), wt flg-hPar4 (human); assay: co-IP: anti-flg IP from HEK293 cells transfected with wt flg-Par4, anti-Akt blot (FIG. 4E, 4F)
flg-Par4MutE346A (human) [6] = target: T2, flg-Par4MutE346A (human); assay: co-IP: anti-flg IP from HEK293 cells transfected with the mutant, anti-Akt blot (FIG. 4E)

- binding [1]: binds
- binding (flg-Par4MutE346A (human) [2]): binds
- binding [3]: binds
- binding [4]: binds
- binding [5]: binds
- binding (flg-Par4MutE346A (human) [6]): binds
Substance: Akt/PKB (protein kinase B) (from UniProt P31749 1-480) (enzyme)
